Measurements from article PMC3979232.
No constants are given. Whether binding was seen depends on the method and setting. Binding seen in cells or lysates may run through a third protein. Binding calls can cover weak binding; strength is not graded here.

Amino acid sequences for entries named in this document (tags omitted). A change or cut given only in a name is not applied to a line headed by its entry.
UniProt A2AM29: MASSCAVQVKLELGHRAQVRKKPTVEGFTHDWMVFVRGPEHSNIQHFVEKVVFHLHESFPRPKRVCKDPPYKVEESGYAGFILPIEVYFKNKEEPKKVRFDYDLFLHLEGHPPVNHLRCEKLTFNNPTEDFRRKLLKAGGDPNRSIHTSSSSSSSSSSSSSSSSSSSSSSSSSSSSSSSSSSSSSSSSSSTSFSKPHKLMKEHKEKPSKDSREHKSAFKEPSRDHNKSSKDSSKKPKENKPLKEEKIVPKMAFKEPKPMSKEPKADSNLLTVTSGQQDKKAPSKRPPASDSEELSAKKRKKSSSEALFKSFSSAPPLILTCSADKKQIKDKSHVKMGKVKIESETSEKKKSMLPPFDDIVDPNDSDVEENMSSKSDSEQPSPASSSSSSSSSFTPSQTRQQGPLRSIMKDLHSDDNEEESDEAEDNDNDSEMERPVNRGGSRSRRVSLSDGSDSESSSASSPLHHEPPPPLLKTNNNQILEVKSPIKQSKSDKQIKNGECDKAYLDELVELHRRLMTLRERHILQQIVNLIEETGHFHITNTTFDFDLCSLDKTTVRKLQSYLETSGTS
UniProt Q9CQJ4: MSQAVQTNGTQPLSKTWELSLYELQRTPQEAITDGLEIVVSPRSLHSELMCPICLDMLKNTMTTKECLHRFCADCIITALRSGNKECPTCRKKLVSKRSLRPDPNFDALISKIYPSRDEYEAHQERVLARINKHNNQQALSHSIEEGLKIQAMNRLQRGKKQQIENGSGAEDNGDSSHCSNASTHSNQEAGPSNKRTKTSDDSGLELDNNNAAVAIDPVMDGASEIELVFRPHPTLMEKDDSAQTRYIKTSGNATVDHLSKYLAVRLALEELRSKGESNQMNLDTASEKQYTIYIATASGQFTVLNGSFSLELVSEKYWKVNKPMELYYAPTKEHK

Biological target: GST–Af9-(397–557) fusion protein (UniProt A2AM29)
Assay: pull-down; bead-bound (glutathione-Sepharose 4B) GST or GST–Af9-(397–557) incubated with in vitro translated full-length Rnf2 overnight at 4°C in 20 mM Tris pH 8.0, 150 mM KCl, 1 mM EDTA, 4 mM MgCl2, 0.2% Nonidet P40, 10% glycerol; immunoblot with anti-Rnf2 antibody; only the target purified

- binding: binds
Substance: in vitro translated full-length Rnf2 (from UniProt Q9CQJ4 1-336)
